This is one part of the list.
What was measured:
Assay in all cases: glycan array binding signal (z-score within array); higher = stronger binding
Conditions in all cases: glycan notation: IUPAC condensed, linker removed
[1] = biological target: Gal3S(b1-3)[Fuc(a1-4)]GlcNAc
Method in brief: (§1)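 Glycan array data came from 3228 arrays in the Consortium for Functional Glycomics database, and only arrays with an available protein sequence were kept. Glycan names were put into IUPAC-condensed notation, and columns mapping to the same glycan were averaged. The binding signal is a within-array Z-score, averaged across arrays of one protein sequence run at different concentrations or buffers and across linkers. A negative Z-score can be read as non-binding.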

Gal3S(b1-4)Glc = biological target: Gal3S(b1-4)Glc
Method in brief: as §1

Gal3S(b1-4)Glc6S = biological target: Gal3S(b1-4)Glc6S
Method in brief: as §1

Gal3S(b1-4)GlcNAc = biological target: Gal3S(b1-4)GlcNAc
Method in brief: as §1

[2] = biological target: Gal3S(b1-4)[Fuc(a1-3)]Glc6S
Method in brief: as §1

[3] = biological target: Gal3S(b1-4)[Fuc(a1-3)]GlcNAc
Method in brief: as §1

[4] = biological target: Gal3S(b1-4)[Fuc(a1-3)]GlcNAc6S
Method in brief: as §1

Gal3S4S(b1-4)GlcNAc = biological target: Gal3S4S(b1-4)GlcNAc
Method in brief: as §1

Gal3S6S(b1-4)GlcNAc = biological target: Gal3S6S(b1-4)GlcNAc
Method in brief: as §1

Gal3S6S(b1-4)GlcNAc6S = biological target: Gal3S6S(b1-4)GlcNAc6S
Method in brief: as §1

Gal4S(b1-4)GlcNAc = biological target: Gal4S(b1-4)GlcNAc
Method in brief: as §1

Gal4S6S(b1-4)GlcNAc = biological target: Gal4S6S(b1-4)GlcNAc
Method in brief: as §1

Gal6P(b1-4)GlcNAc = biological target: Gal6P(b1-4)GlcNAc
Method in brief: as §1

Gal6S(b1-3)GlcNAc = biological target: Gal6S(b1-3)GlcNAc
Method in brief: as §1

Gal6S(b1-3)GlcNAc6S = biological target: Gal6S(b1-3)GlcNAc6S
Method in brief: as §1

Gal6S(b1-4)Glc = biological target: Gal6S(b1-4)Glc
Method in brief: as §1

Gal6S(b1-4)Glc6S = biological target: Gal6S(b1-4)Glc6S
Method in brief: as §1

Gal6S(b1-4)GlcNAc = biological target: Gal6S(b1-4)GlcNAc
Method in brief: as §1

Gal6S(b1-4)GlcNAc6S = biological target: Gal6S(b1-4)GlcNAc6S
Method in brief: as §1

GalNAc(a1-3)Gal = biological target: GalNAc(a1-3)Gal
Method in brief: as §1

GalNAc(a1-3)GalNAc = biological target: GalNAc(a1-3)GalNAc
Method in brief: as §1

[5] = biological target: GalNAc(a1-3)GalNAc(b1-3)Gal(a1-4)Gal(b1-4)Glc
Method in brief: as §1

[6] = biological target: GalNAc(a1-3)GalNAc(b1-3)Gal(a1-4)Gal(b1-4)GlcNAc
Method in brief: as §1

GalNAc(b1-3)Gal = biological target: GalNAc(b1-3)Gal
Method in brief: as §1

[7] = biological target: GalNAc(b1-3)Gal(a1-4)Gal(b1-4)GlcNAc
Method in brief: as §1

[8] = biological target: GalNAc(b1-3)Gal(a1-4)Gal(b1-4)GlcNAc(b1-3)Gal(b1-4)Glc
Method in brief: as §1

[9] = biological target: GalNAc(b1-3)Gal(a1-6)Gal(b1-4)Glc
Method in brief: as §1

GalNAc(b1-3)GalNAc = biological target: GalNAc(b1-3)GalNAc
Method in brief: as §1

GalNAc(b1-3)GlcNAc = biological target: GalNAc(b1-3)GlcNAc
Method in brief: as §1

GalNAc(b1-4)Gal(b1-4)Glc = biological target: GalNAc(b1-4)Gal(b1-4)Glc
Method in brief: as §1

GalNAc(b1-4)GlcNAc = biological target: GalNAc(b1-4)GlcNAc
Method in brief: as §1

[10] = biological target: GalNAc(b1-4)GlcNAc(b1-2)Man
Method in brief: as §1

[11] = biological target: GalNAc(b1-4)GlcNAc(b1-2)Man(a1-3)[GalNAc(b1-4)GlcNAc(b1-2)Man(a1-6)]Man(b1-4)GlcNAc(b1-4)GlcNAc
Method in brief: as §1

[12] = biological target: GalNAc(b1-4)GlcNAc(b1-3)GalNAc(b1-4)GlcNAc
Method in brief: as §1

GalNAc(b1-4)GlcNAc6S = biological target: GalNAc(b1-4)GlcNAc6S
Method in brief: as §1

GalNAc(b1-6)GalNAc = biological target: GalNAc(b1-6)GalNAc
Method in brief: as §1

GalNAc3S(b1-4)GlcNAc = biological target: GalNAc3S(b1-4)GlcNAc
Method in brief: as §1

GalNAc3S(b1-4)GlcNAc3S = biological target: GalNAc3S(b1-4)GlcNAc3S
Method in brief: as §1

[13] = biological target: GalNAc3S(b1-4)[Fuc(a1-3)]GlcNAc
Method in brief: as §1

GalNAc4S6S(b1-4)GlcNAc = biological target: GalNAc4S6S(b1-4)GlcNAc
Method in brief: as §1

GalNAc6S(b1-4)GlcNAc = biological target: GalNAc6S(b1-4)GlcNAc
Method in brief: as §1

Glc(a1-4)Glc = biological target: Glc(a1-4)Glc
Method in brief: as §1

[14] = biological target: Glc(a1-4)Glc(a1-4)Glc(a1-4)Glc
Method in brief: as §1

Glc(a1-6)Glc(a1-6)Glc = biological target: Glc(a1-6)Glc(a1-6)Glc
Method in brief: as §1

[15] = biological target: Glc(a1-6)Glc(a1-6)Glc(a1-6)Glc
Method in brief: as §1

B1: AT3G44510(29) (Arabidopsis thaliana), F4J341 (protein)
chain: MEEHLQGRIKLHDGRYLAYKERGVPKDDAKFTIVLVHGFGSSKDMNFNVSQELVNEIGIYFVLYDRAGYGESDPNPKRSLKSEAYDVQELADGLEIGSRFYLIGISMGSYTVWSCLKHIPQRLAGVAMVAPVVNFRWPSIPKSLMPKDYRREVAKWSVWIANYFPGLLQWLVTQNMFSTTSMLEKNPVYFNDQDIEVLKHIKGFPMLTKEKLRERGVFGTLRSDFLVAFGDWDFDPADLPDPSLSGPEKGSSSVHIWQGYEDKVMPFQLQRCLCRKLPWIRYHEVPKGGHLIVHYDGICDAILKSLLLGEDLPMYKPKAVITEPA
- glycan array binding signal (z-score) [1]: 1.1
- glycan array binding signal (z-score) (Gal3S(b1-4)Glc): -0.113
- glycan array binding signal (z-score) (Gal3S(b1-4)Glc6S): 0.282
- glycan array binding signal (z-score) (Gal3S(b1-4)GlcNAc): 0.576
- glycan array binding signal (z-score) [2]: 1.66
- glycan array binding signal (z-score) [3]: 0.527
- glycan array binding signal (z-score) [4]: -0.023
- glycan array binding signal (z-score) (Gal3S4S(b1-4)GlcNAc): 0.046
- glycan array binding signal (z-score) (Gal3S6S(b1-4)GlcNAc): 0.027
- glycan array binding signal (z-score) (Gal3S6S(b1-4)GlcNAc6S): 0.77
- glycan array binding signal (z-score) (Gal4S(b1-4)GlcNAc): -0.704
- glycan array binding signal (z-score) (Gal4S6S(b1-4)GlcNAc): -0.352
- glycan array binding signal (z-score) (Gal6P(b1-4)GlcNAc): -0.608
- glycan array binding signal (z-score) (Gal6S(b1-3)GlcNAc): -0.183
- glycan array binding signal (z-score) (Gal6S(b1-3)GlcNAc6S): -0.405
- glycan array binding signal (z-score) (Gal6S(b1-4)Glc): -0.234
- glycan array binding signal (z-score) (Gal6S(b1-4)Glc6S): -0.052
- glycan array binding signal (z-score) (Gal6S(b1-4)GlcNAc): 0.603
- glycan array binding signal (z-score) (Gal6S(b1-4)GlcNAc6S): -0.627
- glycan array binding signal (z-score) (GalNAc(a1-3)Gal): -0.061
- glycan array binding signal (z-score) (GalNAc(a1-3)GalNAc): -0.417
- glycan array binding signal (z-score) [5]: -0.476
- glycan array binding signal (z-score) [6]: -0.526
- glycan array binding signal (z-score) (GalNAc(b1-3)Gal): -0.215
- glycan array binding signal (z-score) [7]: 3.41
- glycan array binding signal (z-score) [8]: -0.29
- glycan array binding signal (z-score) [9]: -0.353
- glycan array binding signal (z-score) (GalNAc(b1-3)GalNAc): 0.223
- glycan array binding signal (z-score) (GalNAc(b1-3)GlcNAc): -0.421
- glycan array binding signal (z-score) (GalNAc(b1-4)Gal(b1-4)Glc): -0.819
- glycan array binding signal (z-score) (GalNAc(b1-4)GlcNAc): 9.27
- glycan array binding signal (z-score) [10]: -0.653
- glycan array binding signal (z-score) [11]: 0.424
- glycan array binding signal (z-score) [12]: 0.405
- glycan array binding signal (z-score) (GalNAc(b1-4)GlcNAc6S): 0.491
- glycan array binding signal (z-score) (GalNAc(b1-6)GalNAc): -0.625
- glycan array binding signal (z-score) (GalNAc3S(b1-4)GlcNAc): 0.659
- glycan array binding signal (z-score) (GalNAc3S(b1-4)GlcNAc3S): -0.871
- glycan array binding signal (z-score) [13]: -0.126
- glycan array binding signal (z-score) (GalNAc4S6S(b1-4)GlcNAc): -0.488
- glycan array binding signal (z-score) (GalNAc6S(b1-4)GlcNAc): -0.081
- glycan array binding signal (z-score) (Glc(a1-4)Glc): 0.031
- glycan array binding signal (z-score) [14]: -0.179
- glycan array binding signal (z-score) (Glc(a1-6)Glc(a1-6)Glc): 0.706
- glycan array binding signal (z-score) [15]: -0.082

— the supplement of paper PMC8728848
